Measurements reported in PubChem BioAssay AID720505 (Drosophila RNAi Screening Center, 2013).
Test: 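Fly regulators or components of the CRAC channel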 (primary screen). Cells: Drosophila S2R+ cells. Reagents: long dsRNA against Drosophila genes. Challenge: thapsigargin (2 µM) in calcium-free buffer to empty internal stores, then 2 mM calcium added back. Read-out: 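Stores emptied by 2 µM thapsigargin without calcium, then 2 mM calcium re-added; fluo-4 fluorescence followed by FLIPR in 384-well plates, per-well averaged endpoint, raw; two screen passes, some wells retested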. Direction: calcium signal and retest calcium signal: higher = more calcium entry after store depletion. Rule for the call: 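Knock-downs counted as hits when calcium entry dropped relative to STIM1 positive and Rho1 negative controls present on each plate; roughly 1500 genes called, with reductions of differing size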. Meaning of the calls: active = called as lowering calcium entry; inactive = not called.
In all, the deposit lists about 20,000 reagents; below is a random part of those with a known target gene and a result. In the full data, about 2,100 (10%) got an active call. 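Raw plate signals without normalisation; calls rest on control-based scores that were not deposited; replicate 2 separates called from uncalled poorly.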 Reagents against one gene are numbered here. A plus sign joins genes that one reagent is predicted to hit. The record does not give: the amount of reagent, the time to read-out.

no.	gene	reagent	calcium signal, replicate 1	calcium signal, replicate 2	retest calcium signal, replicate 1	retest calcium signal, replicate 2	Call
1	Drsl5	1	80.6	130			inactive
2	ND-13B	1	60.9	56			inactive
3	CG3739	1	238	174			inactive
4	CG15357	1	101	109			inactive
5	eIF2A	1	113	96.2			inactive
6	Map60	1	214	164			inactive
7	CG1764	1	108	121			inactive
8	nrv2	1	55	137			active
9	nrv2	2	45.6	136			active
10	Sgs4	1	98.5	130			inactive
11	ida	1	82.9	80.5			inactive
12	P32	1	152	140			inactive
13	CG3982	1	48.3	60.8			inactive
14	CG3982	2	133	157			inactive
15	CG12011	1	107	91			inactive
16	Brr2	1	93	69.3			inactive
17	dare + CG30033	1	135	169			inactive
18	CG7600	1	116	101			inactive
19	GlcT	1	86	84.7			inactive
20	Oseg4	1	177	126			inactive
21	Cpsf6	1	51.6	83.7			active
22	CSN1b	1	106	101			inactive
23	CG11200	1	148	80.4			inactive
24	Dgp-1	1	177	121			inactive
25	ktub	1	157	132			inactive
26	sesB	1	129	85.4			inactive
27	Xport-A + Xport-B	1	140	208			inactive
28	Lkr	1	90.4	74.4			inactive
29	CG11964	1	116	145			inactive
30	mRpL33	1	273	109			inactive
31	CG6484	1	125	91.1			inactive
32	Ccs	1	111	167			inactive
33	dpr17	1	95.8	84.8			inactive
34	dpr17	2	67.6	83.7			active
35	CG11327	1	104	132			inactive
36	CG4022	1	65.7	95			inactive
37	SamDC	1	96	74.9			inactive
38	CG2310	1	137	116			inactive
39	CG13492	1	72.9	195			inactive
40	S-Lap5	1	93.9	184			inactive
41	CG13258	1	118	114			inactive
42	CG31036	1	153	155			inactive
43	CG31036	2	165	212			inactive
44	CG43774 + CG43773	1	201	85.7			inactive
45	CG43774 + CG43773	2	197	86.5			inactive
46	Spn28Dc	1	104	131			inactive
47	Pef	1	168	126			inactive
48	inaD	1	152	185			inactive
49	Nt5b	1	161	148			inactive
50	Nt5b	2	106	153			inactive
51	Nt5b	3	78.4	93.4			inactive
52	Nt5b	4	148	136			inactive
53	GstT3	1	168	111			inactive
54	Sgs8	1	82.8	93.3			inactive
55	CecC	1	139	161			inactive
56	CG11037	1	102	136			inactive
57	CG9674	1	120	71.6			inactive
58	CG9674	2	80.9	140			inactive
59	CG6583	1	61.6	166			active
60	Tom7	1	63.8	83			active
61	Tom7	2	112	130			inactive
62	Prx3	1	226	185			inactive
63	CG6933	1	111	69.2			inactive
64	Nup133	1	145	227			inactive
65	Spec2 (retired record)	1	112	180			inactive
66	Spec2 (retired record)	2	100	174			inactive
67	CG33460	1	106	130			inactive
68	CG4988	1	165	155			inactive
69	Picot	1	116	81.5			inactive
70	CG4610	1	115	85.6			inactive
71	CG4610	2	94.8	89.9			inactive
72	Rpn13	1	113	233			inactive
73	sPLA2	1	111	110			inactive
74	CG6901	1	106	153			inactive
75	Dp	1	135	97.3			inactive
76	Rel	1	102	166			inactive
77	Cyp4d21	1	150	198			inactive
78	TyrRS	1	101	107			inactive
79	Bx	1	100	147			inactive
80	Bx	2	85.2	94.7			inactive
81	Bx	3	62.6	91			inactive
82	RhoGEF2	1	71.7	163			active
83	robo3	1	188	161			inactive
84	robo3	2	217	161			inactive
85	robo3	3	157	176			inactive
86	CG15506	1	195	171			inactive
87	RpL37A	1	137	82.2			inactive
88	CG14418	1	82.4	138			inactive
89	CG14418	2	104	149			inactive
90	Acsx3	1	138	301			inactive
91	CG10465	1	95.9	163			inactive
92	CG5068	1	66.7	131			active
93	BOD1	1	114	169			inactive
94	Art6	1	108	137			inactive
95	Karl	1	197	141			inactive
96	Syt1	1	121	169			inactive
97	Syt1	2	116	187	81.5	97.2	inactive
98	Syt1	3	86.5	200			inactive
99	Syt1	4	88.3	184			inactive
100	Syt1	5	124	230			inactive
101	Ir48a	1	87.8	95.8			inactive
102	AMPdeam	1	80.7	102			inactive
103	AMPdeam	2	76.4	82.5			inactive
104	AMPdeam	3	71.2	79.8			active
105	AMPdeam	4	70.8	67.5			active
106	Nubp1	1	135	89.5			inactive

16 consecutive entries already listed:
no.	gene	reagent	calcium signal, replicate 1	calcium signal, replicate 2	retest calcium signal, replicate 1	retest calcium signal, replicate 2	Call
86	CG15506	1	195	171			inactive
87	RpL37A	1	137	82.2			inactive
88	CG14418	1	82.4	138			inactive
89	CG14418	2	104	149			inactive
90	Acsx3	1	138	301			inactive
91	CG10465	1	95.9	163			inactive
92	CG5068	1	66.7	131			active
93	BOD1	1	114	169			inactive
94	Art6	1	108	137			inactive
95	Karl	1	197	141			inactive
96	Syt1	1	121	169			inactive
97	Syt1	2	116	187	81.5	97.2	inactive
98	Syt1	3	86.5	200			inactive
99	Syt1	4	88.3	184			inactive
100	Syt1	5	124	230			inactive
101	Ir48a	1	87.8	95.8			inactive
